Our source for the step yield values is US4172130A (Richter Gedeon Vegyeszeti Gyar RT, priority 1976, dated 1979).

Where “and” joins values, the source holds several entries; their conditions need not be identical. Equal values may be shown once. Some peptides are written in HELM: one residue between dots, names in brackets for other building blocks, links after the first $.

One series is described as follows: general procedure: solution-phase peptide synthesis; active esters (OSu, OPCP, OPFP) with triethylamine in DMF. Conditions: coupling step.
Consider “N-tert.-Butoxycarbonyl-L-tryptophyl-L-norleucyl-L-aspartyl-L-phenylalanine- amide”, for which the step yield is 89.7%.

For the substance BOC-Trp(For)-L-Ade-Asp-Phe-NH2, the step yield was found to be 87.5%.

“N-tert.-Butoxycarbonyl-L-tryptophyl-2-D-amino-decano-yl-L-aspartyl-L-phenylalanine-amide” yielded a step yield of 83.8%.

Turning to “2-(3-(tert.-Butoxycarbonyl-aminooxy)-propionyl-L-tryptophyl-L-methionyl-L-aspartyl-L-phenylalanyl-aminooxy)-acetic acid”, the step yield was found to be 34%.

Take “PEPTIDE1{[Boc].[D-OAla].W.M.D.F.[OGly]}$$$$V2.0”: the step yield was determined as 25.6%.

Substance “2-(2-(tert.-Butoxycarbonyl-aminooxy)-acetyl-L-tryptophyl-L-methionyl-L-aspartyl-L-phenylalanyl-aminooxy)-acetic acid” showed a step yield of 31%.

The substance “N-tert.-Butoxycarbonyl-L-tryptophyl-L-norvalyl-L-aspartyl-L-phenylalanine-amide” registered a step yield of 73.9%.

Consider “N-(tert.-Butoxycarbonyl)-L-tryptophyl-L-leucyl-L-aspartyl-L-phenylalanine-amine”, for which the step yield is given as 72.1%.

In turn, “2-D-(tert.-Butoxycarbonyl-aminooxy)-propionyl-L-tryptophyl-L-norvalyl-L-aspartyl-L-phenylalanine-amide” came in with a step yield of 43.4%.

The series is the same for the next values; noted with them: coupling step; run 1.
“2-(N-(tert.-Butoxycarbonyl)-L-methionyl-L-aspartyl-L-phenylalanyl-aminooxy)acetic acid”: the step yield is 69% and 35.7%.

With “(tert.-Butoxycarbonyl-aminooxy)-acetyl-L-tryptophyl-L-methionyl-L-aspartyl- L-phenylalanine-amide”, the step yield is 91% and 64.8%.

Take “N-(tert.-Butoxycarbonyl)-L-tryptophyl-L-leucyl-L-aspartyl-β-(tert.-butyl ester)-L-phenylalanine-amide”: the step yield is given as 84.5%.

For the substance “N-(tert.-Butoxycarbonyl)-L-tryptophyl-L-methionyl-L-aspartyl-L-phenylalanine-amide”, the step yield is 95% and 69%.

The series is the same for the next values; noted with them: late stage modification step.
Take “(Aminooxy)-acetyl-L-tryptophyl-L-methionyl-L-aspartyl-L-phenylalanine-amide”: the step yield is 69%.

Consider “2-(L-Tryptophyl-L-methionyl-L-aspartyl-L-phenylalanyl-aminooxy)-acetic acid”, for which the step yield is 71%.

The substance “L-Tryptophyl-L-norleucyl-L-aspartyl-L-phenylalanine-amide hydrochloride” returned a step yield of 69.7%.

Take “L-Tryptophyl-2-D-amino-decanoyl-L-aspartyl-L-phenylalanine-amide hydrochloride”: the step yield turned out to be 91.4%.

On to “L-Tryptophyl-L-methionyl-L-aspartyl-L- phenylalanine-amide monohydrate”, for which the step yield is 82.4%.

In turn, “L-Tryptophyl-L-norvalyl-L-aspartyl-L-phenylalanine-amide hydrochloride” had a step yield of 98.0%.

In turn, “L-Tryptophyl-2-L-amino-decanoyl-L-aspartyl-L-phenyl-alanine-amide hydrochloride” registered a step yield of 99%.

With “L-Tryptophyl-L-leucyl-L-aspartyl-L-phenylalanine-amide”, the step yield amounted to 83.1%.
